# Patent US11771738B2 (Zoetis Services LLC, priority 2018, dated 2023)
# Experiment: general procedure: solution-phase peptide synthesis; HATU/diisopropylethylamine (fragment couplings); propylphosphonic anhydride/diis
Substance,step yield (late stage modification step) [%],other results
"(3S,6R,9S,12R,15S,18R,21S,24R)-3,9,15,21-tetraisobutyl-6,18-bis(4-(1-(6-methoxypyridin-3-yl)ethyl)benzyl)-4,10,12,16,22,24-hexamethyl-1,7,13,19-tetraoxa-4,10,16,22-tetraazacyclotetracosan-2,5,8,11,14,17,20,23-octaone",52,–
"(3S,6R,9S,12R,15S,18R,21S,24R)-6,18-bis(4-(1-fluoro-1-(5-methoxypyrazin-2-yl)ethyl)benzyl)-3,9,15,21-tetraisobutyl-4,10,12,16,22,24-hexamethyl-1,7,13,19-tetraoxa-4,10,16,22-tetraazacyclotetracosan-2,5,8,11,14,17,20,23-octaone",3,–
"(3S,6R,9S,12R,15S,18R,21S,24R)-6,18-bis[[4-[[2-(difluoromethyl)-3-pyridyl]methyl]phenyl]methyl]-3,9,15,21-tetraisobutyl-4,10,12,16,22,24-hexamethyl-1,7,13,19-tetraoxa-4,10,16,22-tetrazacyclotetracosane-2,5,8,11,14,17,20,23-octaone",62,–
(R)-1-(benzyloxy)-1-oxopropan-2-yl N—((R)-2-((N-(tert-butoxycarbonyl)-N-methyl-L-leucyl)oxy)-3-(4-((methoxycarbonyl)amino)phenyl)propanoyl)-N-methyl-L-leucinate,–,step yield (coupling step): 83%
Bis-CH2OH PF1022a,–,"step yield (late stage modification step, 2 steps from Bis-Iodo PF1022a): 91% yield for 2 steps"
Bis-Iodo PF1022a,62,–
"dimethyl ((((2S,5R,8S,11R,14S,17R,20S,23R)-5,11,17,23-tetraisobutyl-4,8,10,16,20,22-hexamethyl-3,6,9,12,15,18,21,24-octaoxo-1,7,13,19-tetraoxa-4,10,16,22-tetraazacyclotetracosane-2,14-diyl)bis(methylene))bis(4,1-phenylene))dicarbamate",–,cyclisation yield (cyclisation step): 77% yield
